# Reference: patent publication US20260324646A1, “BIOLOGICAL COMPOSITION FOR USE AGAINST PLANT FUNGICIDAL INFECTIONS” (UNIVERSITA' DEGLI STUDI DI MILANO, priority 2023, published 2026)
# At least one structure is not confirmed: it was looked up by name or label, or the drawing left a doubt.
# Tested on: Alternaria sp. and B. caroliniana
# Assay: In vitro growth inhibition of phytopathogenic fungi on PDA (radial growth rate, 12-day effect)
# Assay type: cell-based, Alternaria sp.; Botrytis caroliniana
# Design: key to the marks not given beside the values
# Conditions: CaCl2 3X (1.4 mM)
# Method: The phytopathogenic fungus Alternaria sp. was isolated in December 2021 from a vineyard in Oltrepo pavese (Santa Maria della Versa, Pavia, Italy).
# In addition to Alternaria sp., experiments were also carried out on the fungus Botrytis caroliniana.
# The fungal strains were maintained on potato dextrose agar (PDA, Merck kGaA, Darmstadt, Germany) at 4±1° C. and regularly subcultured. Plants of Solanum lycopersicum (cultivar Rio Grande) were sprouted in the greenhouse of the Fondazione dell'Università di Milano Filarete (Milan, Italy) under controlled conditions (T=18/25±1° C. (night/day), humidity ≥90%, photoperiod 16 h light:8 h dark). Determination of in vitro growth inhibition caused by mixtures of CA, BA, CaCl2 and the compositions of the invention was performed by measuring the diameter and calculating the radial growth rate (Kr, mm/h). The diameter growth of the fungi was determined daily, in six repetitions, using the Image J program (Copyright© 1993, 2018, Oracle).
# The fungal cultures were carried out in Petri dishes (6 Well Cell Culture Plates, Sigma-Aldrich). The media treated with the compositions of the invention were inoculated with mycelial caps (diameter 7 mm) of growing active fungal strains (e.g., Alternaria sp. and B. caroliniana). […]
smiles,measurement,value
"[Ca+2].[Cl-].[Cl-] [CaCl2, Calcium chloride]",Effect (12 days from cultivation),++++
